The text below walks through data of patent US20150056162A1.

By UniProt entry, the sequences of proteins in these tests, tags left out. Where a name states a change or a piece, a line headed by the entry shows the natural chain unless it says otherwise.
UniProt P35225: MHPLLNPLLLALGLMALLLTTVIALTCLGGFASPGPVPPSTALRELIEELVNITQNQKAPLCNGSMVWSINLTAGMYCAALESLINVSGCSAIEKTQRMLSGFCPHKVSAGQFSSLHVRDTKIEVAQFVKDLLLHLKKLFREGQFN

Results are given in words; binding and its absence hold for the method and conditions named. Some results given as binding are weak or reduced against the parent protein; the word gives no strength.

For the test, the target named is T1, IL-13Rα2, biotinylated (human) (UniProt Q14627).
T1 sequence (biotinylated (site not stated), looked up): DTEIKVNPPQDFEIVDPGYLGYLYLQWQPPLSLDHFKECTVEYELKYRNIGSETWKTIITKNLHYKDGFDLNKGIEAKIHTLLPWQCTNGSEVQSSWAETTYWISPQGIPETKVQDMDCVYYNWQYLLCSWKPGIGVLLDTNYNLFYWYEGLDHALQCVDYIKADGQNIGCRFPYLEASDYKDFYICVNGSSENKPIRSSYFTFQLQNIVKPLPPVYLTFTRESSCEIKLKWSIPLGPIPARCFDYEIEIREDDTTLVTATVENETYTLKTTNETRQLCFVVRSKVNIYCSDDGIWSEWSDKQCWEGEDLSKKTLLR
As to the kind of experiment: SPR, biotinylated receptor captured on SA chip (FIG. 2A). (In general: Surface plasmon resonance follows binding to a sensor surface in real time, without labels.)

Turning to “IL-13 variant C11 (from UniProt P35225 34-146) (ligand)”, the binding entry was “binds”.
